For some of these results: No signal at the amounts used counts as a negative. Where a protein sequence is shown, tags need not be part of it. For some of these results: The comparison behind a weaker result is the experiment's own reference, which may not be listed here.

Series [1] has as its target T1, 6His-FrzCD (UniProt P43500).
T1 sequence (looked up): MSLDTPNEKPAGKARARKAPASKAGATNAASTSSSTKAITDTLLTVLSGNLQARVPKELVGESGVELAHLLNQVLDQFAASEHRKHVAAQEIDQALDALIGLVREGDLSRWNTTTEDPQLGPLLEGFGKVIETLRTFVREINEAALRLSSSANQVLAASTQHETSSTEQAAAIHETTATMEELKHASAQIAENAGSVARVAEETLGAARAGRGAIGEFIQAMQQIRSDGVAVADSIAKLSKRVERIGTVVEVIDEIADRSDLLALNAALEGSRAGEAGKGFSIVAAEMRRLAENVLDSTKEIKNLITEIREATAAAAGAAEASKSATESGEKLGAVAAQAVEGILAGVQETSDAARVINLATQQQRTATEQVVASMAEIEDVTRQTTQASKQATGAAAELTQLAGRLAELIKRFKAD
The experiment in a line: EMSA. Conditions: 10 nM DNA, EMSA Fig 3: 10 mM Tris-HCl pH 8, 60 mM NaCl, 10% glycerol, 4 C, 40 min, EMSA S4 Fig: 50 mM Tris pH 7.4, 50 mM NaCl, 1 mM DTT, 25 C, 20 min, recombinant protein, residues 1-417, protein details: 6His, probe letters rebuilt from the primers and the genome. In general terms: A gel shift assay detects complexes by their altered migration in electrophoresis.

Series [2] has as its target T2, 6His-FrzCDΔ1-130 del1-130 (UniProt P43500).
T2 sequence (looked up): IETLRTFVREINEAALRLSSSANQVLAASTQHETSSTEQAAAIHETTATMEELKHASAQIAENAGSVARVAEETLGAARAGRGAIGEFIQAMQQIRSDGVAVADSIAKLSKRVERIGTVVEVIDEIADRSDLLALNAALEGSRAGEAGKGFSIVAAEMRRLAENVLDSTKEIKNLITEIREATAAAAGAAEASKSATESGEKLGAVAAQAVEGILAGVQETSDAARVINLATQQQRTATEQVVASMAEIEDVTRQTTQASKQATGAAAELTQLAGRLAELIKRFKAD
Kind of series: EMSA. Conditions: 10 nM DNA, EMSA Fig 3: 10 mM Tris-HCl pH 8, 60 mM NaCl, 10% glycerol, 4 C, 40 min, EMSA S4 Fig: 50 mM Tris pH 7.4, 50 mM NaCl, 1 mM DTT, 25 C, 20 min, recombinant protein, residues 131-417, protein details: 6His, probe letters rebuilt from the primers and the genome.

Series [3] has as its target T1, 6His-FrzCD. Kind of series: BLI. Conditions: protein immobilized, 38 nM DNA, not fitted by 1:1 model, no Kd; BLI: PBS pH 7.5, 0.001% Tween-20, 25 C (6His-FrzCDΔ1-130 used as reference subtraction); recombinant protein; residues 1-417; protein details: 6His; probe letters rebuilt from the primers and the genome.
The target of another series is T3, 6His-FrzCDΔ7-27 del7-27 (UniProt P43500).
T3 sequence (looked up): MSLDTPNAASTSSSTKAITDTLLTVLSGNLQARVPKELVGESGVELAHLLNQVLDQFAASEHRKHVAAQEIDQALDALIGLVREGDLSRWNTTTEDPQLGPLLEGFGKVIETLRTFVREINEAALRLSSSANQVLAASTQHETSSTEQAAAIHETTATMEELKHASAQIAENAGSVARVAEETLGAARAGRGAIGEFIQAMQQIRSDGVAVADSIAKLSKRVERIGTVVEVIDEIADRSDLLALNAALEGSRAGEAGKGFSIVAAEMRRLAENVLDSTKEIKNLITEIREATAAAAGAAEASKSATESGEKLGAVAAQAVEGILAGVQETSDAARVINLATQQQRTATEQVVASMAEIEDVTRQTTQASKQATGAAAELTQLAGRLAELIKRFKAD
Kind of series: BLI. Conditions: protein immobilized, 38 nM DNA, detectable but severely impaired; BLI: PBS pH 7.5, 0.001% Tween-20, 25 C (6His-FrzCDΔ1-130 used as reference subtraction); recombinant protein; residues 1-417; protein details: 6His; probe letters rebuilt from the primers and the genome.

Take “CGGGATCCTGGCTCCGCCCCCGACGCAGGCCCCCGTGGCCGAGCCGGGGGCGCACGCCGCCGCAGCCGCGCCTCACCCGGCTGCCGCGCATGGCCGTGACGAGGAGGCCCCGAGCGCCGCGAAGTCCGCGGTGGCCGACCGGAGCATCCGCGTCAACGTGGAGGTGCTCGACGCGTTGGGGTTGCTCGCGGGCGACCTGCTGGTGGAGAGCGCCCGCGGCCGGCTGCGCAGCTCGGAGACGGAGGCGTTGTTCGAGCGCTTCAGCCGCCTGGGGGACCGCTTCCTCCGGCTGGCGGAAGAGATCGACATCTCGAACGAGGTGCGTGAGCAGTTGGACCGCGTGGAGAGCGACCTCCACATGCTGCGCGACGACGCGTTCCGCTTCGTGCGCCGCAACGACGACGGCATCAACACGCTGCACGGCAACCTGGCGAAGATGGCGGACCACGTGGCCGAGGCCCGGCTGGTGCCGCTGTCCACCGTGTTCGACGCCTTCCCGCGCGCCGTTCGCGAGATGTCGCGCACGCAGGGCAAGGAAGTGGACCTGGTCATCGAGAACGCCGACATCGGCGTGGACCGGTCCATGCTGGGCGACGTGCGAGACGCGCTGGTGCACCTGCTGCGCAACTCGGTGGACCACGGCGTGGAGTCCCCGGACACGCGCCAGCAGTTGGGCAAGCCGCTCAACGGCCGCATCCGCATCCGCGTGCGCGTGGACGGCGACATGCTCCACATCGAGGTGGAGGACGACGGCCGCGGCATCGACCCGGAGCGGCTGCGTCAGGCGGCCATCTCCAAGCGCCTCATCAAAAGCTTGGG (double strand) [Oligo801]”: the binding result with 6His-FrzCD [1] is “binds”; in series [2], “no binding”.

Turning to “TCACGCGGGCTCCGGCTCCTGCGGCGCGGCCAGGGCGGCATCCAGCTCCAGGGCCTCGGCCTCGGACAGGAAGGTGCGCAGGTCATGGACCAGGACGAGCCCGTCCTTCAGCTTCACGGCGCCCGCCACATAGCCCACGCCCGGAAGCTGGCGCGGCGTGGCGTCCCACTCATCCGGTGTGAGGACGCGCAGGCCCTCGGCCCGGTCCACGCGCAGCACGACGCAGCGGTCGCCCGCGGAGGCCACGATGAAGTGATCCATGGGGGACAGCGGGCGGGGCGGGTGGCGGAAGCGCAGGCGCAGGTCCAGCACCGGCAGCAGCTCCCCCCGAAGGTCCAGCAGGCCCTCCACCACGGCGGGCGCGCGAGGGAGCGGCGTCAGGCGCGCAGCGCGTACCAACTCGCGCACGTCGGGTGCGGGCAGTCCGTAGCGCTGGCCGTTCAGGGTGAACAGCAGCACCTCCGTGGGTGCGGGGGTCT (double strand) [474 bp BLI fragment]”, the binding result is reported as “binds” with 6His-FrzCD [3] and “binds more weakly” with 6His-FrzCDΔ7-27 del7-27.
